These are yes or no findings as the source states them, for the method shown. For some of these results: Binding seen in cells or lysates may run through a third protein. Some binding calls cover weakened binding; strength is not graded here. Values belong to the substance of their own block, whether it stands above or below them.
Columns and labels:
[1] = molecular target: vitronectin in platelet supernatants (human (endogenous in platelets)) (UniProt P04004); experiment: co-IP; supernatants (100,000 x g) of washed human platelets stimulated with thrombin 1 U/ml, immunoprecipitated with monoclonal antibodies to FN or VN or an isotype-matched control; blot for HGF
[2] = molecular target: fibronectin in platelet supernatants (human (endogenous in platelets)) (UniProt P02751); experiment: as above
vitronectin = vitronectin (UniProt P04004); experiment: radioligand binding; solid phase assay: ECM proteins, FN proteolytic fragments or BSA (10 μg/ml) coated on plastic microtitre wells; 125I-HGF in PBS with 2% BSA, 30 min at room temperature, washed, counted in a γ-counter; both purified
[3] = molecular target: integrin α2β1 (human (endogenous in HMVEC)) (UniProt P17301+P05556); experiment: co-IP; HMVEC seeded on collagen-1, FN or VN coated wells and stimulated with HGF for 60 min at room temperature; lysates immunoprecipitated with antibodies to α2β1, α5β1 or αvβ3 respectively; blot for Met

Amino acid sequences for entries named in this document (tags omitted). A change or cut given only in a name is not applied to a line headed by its entry. Residues count along the entry.
UniProt P04004, residues 20-478: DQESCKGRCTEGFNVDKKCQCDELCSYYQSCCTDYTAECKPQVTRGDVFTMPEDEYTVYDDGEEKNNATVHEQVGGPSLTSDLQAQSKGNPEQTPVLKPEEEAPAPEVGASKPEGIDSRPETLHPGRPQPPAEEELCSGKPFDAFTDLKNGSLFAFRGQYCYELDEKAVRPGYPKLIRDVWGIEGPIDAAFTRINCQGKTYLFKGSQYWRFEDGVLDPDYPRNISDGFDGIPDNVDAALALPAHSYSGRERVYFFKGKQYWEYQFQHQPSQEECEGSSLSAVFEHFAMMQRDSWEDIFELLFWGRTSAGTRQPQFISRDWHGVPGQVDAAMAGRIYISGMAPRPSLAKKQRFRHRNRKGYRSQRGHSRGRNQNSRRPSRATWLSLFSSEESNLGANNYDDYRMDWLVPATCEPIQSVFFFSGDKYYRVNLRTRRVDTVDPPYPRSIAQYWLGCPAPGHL
UniProt P02751, residues 32-2477: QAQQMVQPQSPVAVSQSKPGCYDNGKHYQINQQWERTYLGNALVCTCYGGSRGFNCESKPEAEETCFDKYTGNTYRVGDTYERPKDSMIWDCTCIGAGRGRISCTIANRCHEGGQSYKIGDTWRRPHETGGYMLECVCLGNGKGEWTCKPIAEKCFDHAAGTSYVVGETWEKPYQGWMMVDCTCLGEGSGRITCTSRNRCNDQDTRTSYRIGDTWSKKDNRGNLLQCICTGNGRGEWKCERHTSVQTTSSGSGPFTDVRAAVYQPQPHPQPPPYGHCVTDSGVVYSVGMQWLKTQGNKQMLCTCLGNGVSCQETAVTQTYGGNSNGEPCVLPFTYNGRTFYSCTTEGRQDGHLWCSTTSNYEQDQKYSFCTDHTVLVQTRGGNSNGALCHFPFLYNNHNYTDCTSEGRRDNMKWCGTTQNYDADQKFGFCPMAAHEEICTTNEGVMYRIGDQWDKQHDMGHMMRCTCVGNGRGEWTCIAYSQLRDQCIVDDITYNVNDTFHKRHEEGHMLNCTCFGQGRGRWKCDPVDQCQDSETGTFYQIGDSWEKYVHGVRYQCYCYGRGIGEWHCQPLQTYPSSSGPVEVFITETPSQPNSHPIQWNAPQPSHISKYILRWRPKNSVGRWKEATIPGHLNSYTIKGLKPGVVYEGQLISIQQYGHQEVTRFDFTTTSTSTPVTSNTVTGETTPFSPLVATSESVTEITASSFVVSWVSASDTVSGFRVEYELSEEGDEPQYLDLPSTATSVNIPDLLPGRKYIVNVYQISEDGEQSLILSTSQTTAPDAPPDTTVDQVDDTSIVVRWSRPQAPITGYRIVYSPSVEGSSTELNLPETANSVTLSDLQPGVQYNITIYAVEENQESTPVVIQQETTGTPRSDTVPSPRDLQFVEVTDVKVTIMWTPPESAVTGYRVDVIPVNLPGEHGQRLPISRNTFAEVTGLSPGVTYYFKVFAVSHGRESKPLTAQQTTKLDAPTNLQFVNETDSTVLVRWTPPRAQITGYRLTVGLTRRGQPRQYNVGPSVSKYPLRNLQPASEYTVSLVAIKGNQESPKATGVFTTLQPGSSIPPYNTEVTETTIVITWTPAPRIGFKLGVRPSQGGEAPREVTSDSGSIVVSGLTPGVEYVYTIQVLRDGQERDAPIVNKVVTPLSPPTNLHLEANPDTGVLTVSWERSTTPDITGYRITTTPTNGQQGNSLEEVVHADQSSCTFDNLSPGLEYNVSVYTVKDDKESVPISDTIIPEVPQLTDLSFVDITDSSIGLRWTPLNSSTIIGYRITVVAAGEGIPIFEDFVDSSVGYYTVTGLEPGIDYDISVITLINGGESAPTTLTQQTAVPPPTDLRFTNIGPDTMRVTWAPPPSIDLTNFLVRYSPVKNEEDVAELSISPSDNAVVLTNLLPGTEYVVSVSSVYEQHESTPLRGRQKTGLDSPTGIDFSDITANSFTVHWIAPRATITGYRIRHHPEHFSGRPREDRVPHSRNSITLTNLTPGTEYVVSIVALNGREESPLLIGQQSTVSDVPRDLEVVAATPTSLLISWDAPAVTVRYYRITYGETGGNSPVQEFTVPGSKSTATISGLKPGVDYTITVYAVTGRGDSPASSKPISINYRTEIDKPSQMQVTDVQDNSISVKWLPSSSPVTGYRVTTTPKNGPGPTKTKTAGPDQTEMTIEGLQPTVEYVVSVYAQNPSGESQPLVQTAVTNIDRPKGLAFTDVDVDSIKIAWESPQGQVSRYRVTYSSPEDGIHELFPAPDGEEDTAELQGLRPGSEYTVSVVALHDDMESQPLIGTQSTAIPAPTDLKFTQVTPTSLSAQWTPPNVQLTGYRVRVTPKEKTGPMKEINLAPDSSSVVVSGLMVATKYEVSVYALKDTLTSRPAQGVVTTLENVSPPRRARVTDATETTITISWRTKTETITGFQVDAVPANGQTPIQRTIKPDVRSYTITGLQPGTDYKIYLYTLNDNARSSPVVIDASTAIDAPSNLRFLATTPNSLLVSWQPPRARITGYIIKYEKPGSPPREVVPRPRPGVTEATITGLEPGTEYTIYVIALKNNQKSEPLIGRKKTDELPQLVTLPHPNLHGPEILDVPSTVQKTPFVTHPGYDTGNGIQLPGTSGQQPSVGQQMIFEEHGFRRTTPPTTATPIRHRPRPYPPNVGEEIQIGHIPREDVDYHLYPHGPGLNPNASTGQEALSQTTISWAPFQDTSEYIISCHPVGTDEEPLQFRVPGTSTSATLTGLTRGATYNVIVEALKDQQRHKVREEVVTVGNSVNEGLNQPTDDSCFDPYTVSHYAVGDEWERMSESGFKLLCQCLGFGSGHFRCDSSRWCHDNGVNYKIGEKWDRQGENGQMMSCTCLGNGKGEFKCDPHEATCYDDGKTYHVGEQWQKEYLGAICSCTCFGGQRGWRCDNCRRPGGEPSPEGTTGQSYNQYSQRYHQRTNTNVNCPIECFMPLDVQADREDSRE
UniProt P17301: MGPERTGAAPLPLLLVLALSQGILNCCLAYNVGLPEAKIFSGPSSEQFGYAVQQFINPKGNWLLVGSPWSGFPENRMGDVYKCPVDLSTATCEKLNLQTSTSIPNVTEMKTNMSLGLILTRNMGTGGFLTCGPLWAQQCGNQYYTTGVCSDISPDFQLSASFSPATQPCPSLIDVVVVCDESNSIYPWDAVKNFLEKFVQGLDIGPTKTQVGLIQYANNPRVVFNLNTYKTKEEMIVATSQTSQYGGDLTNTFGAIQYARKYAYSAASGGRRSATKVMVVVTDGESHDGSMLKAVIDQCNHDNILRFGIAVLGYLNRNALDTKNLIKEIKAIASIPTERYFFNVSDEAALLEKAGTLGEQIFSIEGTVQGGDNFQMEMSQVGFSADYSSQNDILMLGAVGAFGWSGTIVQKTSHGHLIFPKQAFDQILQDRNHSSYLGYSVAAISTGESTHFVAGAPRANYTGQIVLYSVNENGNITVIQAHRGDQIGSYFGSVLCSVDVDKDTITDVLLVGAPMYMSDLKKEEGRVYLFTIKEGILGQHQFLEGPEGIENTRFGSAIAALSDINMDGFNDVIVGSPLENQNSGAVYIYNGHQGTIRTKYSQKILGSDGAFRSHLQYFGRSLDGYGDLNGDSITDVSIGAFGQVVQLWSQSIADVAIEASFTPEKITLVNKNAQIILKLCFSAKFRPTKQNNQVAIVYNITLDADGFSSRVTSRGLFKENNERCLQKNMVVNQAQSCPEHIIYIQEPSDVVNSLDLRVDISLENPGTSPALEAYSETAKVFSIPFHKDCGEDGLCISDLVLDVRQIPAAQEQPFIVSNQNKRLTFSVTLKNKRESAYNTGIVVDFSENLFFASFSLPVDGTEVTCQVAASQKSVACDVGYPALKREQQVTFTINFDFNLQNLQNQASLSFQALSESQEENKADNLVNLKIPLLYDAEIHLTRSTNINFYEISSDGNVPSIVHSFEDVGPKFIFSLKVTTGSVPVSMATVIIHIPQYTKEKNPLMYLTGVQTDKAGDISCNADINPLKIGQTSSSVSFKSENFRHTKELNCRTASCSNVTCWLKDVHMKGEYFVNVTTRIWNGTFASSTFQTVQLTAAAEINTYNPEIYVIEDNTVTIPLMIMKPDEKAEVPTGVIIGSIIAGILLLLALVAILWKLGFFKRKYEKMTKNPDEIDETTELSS
UniProt P05556: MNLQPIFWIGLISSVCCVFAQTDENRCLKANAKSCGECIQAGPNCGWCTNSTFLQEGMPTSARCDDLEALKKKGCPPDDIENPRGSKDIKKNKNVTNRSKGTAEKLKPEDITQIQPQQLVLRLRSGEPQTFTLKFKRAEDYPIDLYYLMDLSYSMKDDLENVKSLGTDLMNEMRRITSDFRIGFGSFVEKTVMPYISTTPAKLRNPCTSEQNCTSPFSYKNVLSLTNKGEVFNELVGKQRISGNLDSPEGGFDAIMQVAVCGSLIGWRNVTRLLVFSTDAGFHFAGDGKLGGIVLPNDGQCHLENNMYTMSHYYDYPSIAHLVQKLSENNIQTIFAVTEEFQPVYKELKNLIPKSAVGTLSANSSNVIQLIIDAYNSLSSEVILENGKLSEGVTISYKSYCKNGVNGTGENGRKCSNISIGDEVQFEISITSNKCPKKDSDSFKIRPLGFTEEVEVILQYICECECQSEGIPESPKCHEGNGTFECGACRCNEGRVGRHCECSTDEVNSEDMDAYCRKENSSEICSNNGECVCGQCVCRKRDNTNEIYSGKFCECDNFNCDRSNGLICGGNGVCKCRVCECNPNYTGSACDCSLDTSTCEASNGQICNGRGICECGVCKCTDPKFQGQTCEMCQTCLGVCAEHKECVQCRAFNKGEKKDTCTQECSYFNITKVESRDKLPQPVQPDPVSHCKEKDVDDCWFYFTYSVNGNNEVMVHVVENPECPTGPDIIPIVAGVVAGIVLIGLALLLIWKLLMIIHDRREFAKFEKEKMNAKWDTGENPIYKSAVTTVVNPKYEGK
UniProt P14210, residues 32-728: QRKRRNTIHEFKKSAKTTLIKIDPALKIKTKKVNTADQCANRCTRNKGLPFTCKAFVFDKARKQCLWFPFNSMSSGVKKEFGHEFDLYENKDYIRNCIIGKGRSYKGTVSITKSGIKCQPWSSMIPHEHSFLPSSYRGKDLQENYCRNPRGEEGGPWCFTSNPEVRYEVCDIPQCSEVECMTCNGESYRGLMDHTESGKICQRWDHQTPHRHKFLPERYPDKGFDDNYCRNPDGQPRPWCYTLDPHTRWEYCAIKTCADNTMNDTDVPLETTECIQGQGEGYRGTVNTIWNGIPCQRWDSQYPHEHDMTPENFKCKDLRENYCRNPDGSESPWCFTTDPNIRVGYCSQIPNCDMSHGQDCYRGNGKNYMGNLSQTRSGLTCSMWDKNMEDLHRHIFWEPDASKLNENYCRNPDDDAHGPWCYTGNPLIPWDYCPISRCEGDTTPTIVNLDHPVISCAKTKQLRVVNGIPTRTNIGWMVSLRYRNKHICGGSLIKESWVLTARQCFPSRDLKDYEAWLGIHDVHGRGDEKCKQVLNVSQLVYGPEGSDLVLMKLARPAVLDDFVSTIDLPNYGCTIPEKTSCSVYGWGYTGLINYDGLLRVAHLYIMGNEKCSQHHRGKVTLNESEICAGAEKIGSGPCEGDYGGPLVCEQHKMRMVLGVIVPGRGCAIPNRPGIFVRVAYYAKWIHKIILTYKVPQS

binding [1]: binds
binding [2]: binds
Substance: hepatocyte growth factor released from platelets (from UniProt P14210 32-728) (ligand)

binding (vitronectin): binds
Substance: 125I-labelled hepatocyte growth factor (from UniProt P14210 32-728) (ligand)

binding [3]: binds weakly
Substance: Met receptor tyrosine kinase (from UniProt P08581 25-1390)

Source: publication PMC553973
